Data from the supplement of paper PMC12067093, “Discovery and optimisation of a covalent ligand for TRIM25 and its application to targeted protein ubiquitination” (Chemical Science, 2025).
This is one part of the list.

Compound: CC1Cc2ccccc2N1C(=O)C1CCCN(C1)C(=O)CCl (mixture of isomers) [TRIM25 ligand 11 (diastereomer mixture)]
Experiment: probe-labelled cysteine peptide fold change vs DMSO (competition) (log2 fold change); higher = less target engagement (more negative = stronger competition)
Details: THP-1, incubation time: 4 h
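Also: competitive chemoproteomic profiling in live THP-1 cells with an iodoacetamide desthiobiotin (IA-DTB) probe, comparing probe-labelled peptide intensities in compound-treated cells against DMSO-treated controls.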

Target	probe-labelled cysteine peptide fold change (10 µM)	probe-labelled cysteine peptide fold change (50 µM)
PREB_Q9HCU5_378_CQLHLLPSR (UniProt Q9HCU5)	0.0563	0.163
PREB_Q9HCU5_90_ATMNLALAGDILAAGQDAHCQLLR (UniProt Q9HCU5)	-0.174	-0.089
PPP1R9B_Q96SB3_270_CPAGQQPPQHR (UniProt Q96SB3)	-0.0542	-0.0774
PRDX2_P32119_172_LVQAFQYTDEHGEVCPAGWKPGSDTIK (UniProt P32119)	0.192	0.128
PPP1CB_P62140_201_IMRPTDVPDTGLLCDLLWSDPDK (UniProt P62140)	0.0115	0.114
PREP_P48147_343_VLVPEHEKDVLEWIACVR (UniProt P48147)	-0.434	-0.0413
PPP1R12A_O14974_48_VKFDDGAVFLAACSSGDTDEVLK (UniProt O14974)	-0.0752	-0.163
PPP3CB_P16298_162_GNHECR (UniProt P16298)	0.073	0.158
PREP_P48147_255_EGCDPVNR (UniProt P48147)	0.0406	0.0173
PPP2R1B_P30154_389_ENTIEHLLPLFLAQLKDECPDVR (UniProt P30154)	-0.503	-0.242
PPM1H_Q9ULR3_56_FPYGRPEFLGLSQDEVECSADHIARPILILK (UniProt Q9ULR3)	0.0254	-0.319
PRDX1_Q06830_173_HGEVCPAGWKPGSDTIKPDVQK (UniProt Q06830)	-0.14	-0.12
PPM1H_Q9ULR3_239_KIPHECLVIGALESAFK (UniProt Q9ULR3)	0.159	0.0827
PREPL_Q4J6C6_184_IRTEDSEASTCVIIK (UniProt Q4J6C6)	0.00491	0.152
PREPL_Q4J6C6_409_NCPFQLCSPIRPPK (UniProt Q4J6C6)	0.0424	0.114
PPM1B_O75688_279_SRLEVSDDLENVCNWVVDTCLHK (UniProt O75688)	0.231	0.186
PRDX1_Q06830_71+83_LNCQVIGASVDSHFCHLAWVNTPK (UniProt Q06830)	0.226	0.16
PPIP5K2_O43314_49_QIVVGICSMAK (UniProt O43314)	-0.09	-0.209
PPP3CA_Q08209_228_FKEPPAYGPMCDILWSDPLEDFGNEK (UniProt Q08209)	0.107	0.0161

Random excerpt: two records from the list
Target	probe-labelled cysteine peptide fold change (10 µM)	probe-labelled cysteine peptide fold change (50 µM)
PREPL_Q4J6C6_409_NCPFQLCSPIRPPK (UniProt Q4J6C6)	0.0424	0.114
PREP_P48147_255_EGCDPVNR (UniProt P48147)	0.0406	0.0173

(listing goes on)

Target	probe-labelled cysteine peptide fold change (10 µM)	probe-labelled cysteine peptide fold change (50 µM)
PPP4C_P60510_52_VDSPVTVCGDIHGQFYDLK (UniProt P60510)	0.101	-0.0221
PPP6R1_Q9UPN7_216_LIEQIHPSKDENQHSNASQSLCDIIR (UniProt Q9UPN7)	-0.143	-0.425
PPP6C_O00743_129_QITQVYGFYDECQTK (UniProt O00743)	0.415	0.409
PRDX2_P32119_172_LVQAFQYTDEHGEVCPAGWK (UniProt P32119)	0.0996	0.154
PPP4R3B_Q5MIZ7_98_ICQVQGK (UniProt Q5MIZ7)	0.0151	0.0864
PRDX3_P30048_60_LFSTSSSCHAPAVTQHAPYFK (UniProt P30048)	0.13	-0.335
PRC1_O43663_14_RSEVLAEESIVCLQK (UniProt O43663)	0.101	-0.0856
PPP6R3_Q5H9R7_216_LVEIVHPSQEEDRHSNASQSLCEIVR (UniProt Q5H9R7)	-0.144	-0.238
PRC1_O43663_80_ELNTLCSELHVEPFQEEGETTILQLEK (UniProt O43663)	-0.0424	0.0399
PRC1_O43663_236_SQNEAVCEGLR (UniProt O43663)	0.0852	0.203
PPP1R3D_O95685_60_APPPTPAPSGCDPR (UniProt O95685)	0.1	-0.0224
PRDX1_Q06830_83_KLNCQVIGASVDSHFCHLAWVNTPK (UniProt Q06830)	0.127	0.0883
PPP6R3_Q5H9R7_467_IANCIVHSTDK (UniProt Q5H9R7)	0.0404	-0.0255
PPP6R1_Q9UPN7_37_FDLHTSSHLDTLLEREDLSLPELLDEEDVLQECK (UniProt Q9UPN7)	0.124	-0.285
PPP5C_P53041_77_TECYGYALGDATR (UniProt P53041)	0.133	0.101
PREX1_Q8TCU6_1021_KPSLIGLDPEQGHLNPMSYTQHCITTMAAPSWK (UniProt Q8TCU6)	-0.183	-0.357
PPP2R1A_P30153_174_NLCSDDTPMVR (UniProt P30153)	-0.1	-0.168
PPIP5K2_O43314_729_IPDIYDCIK (UniProt O43314)	-0.0456	-0.0148
